Reference: PubChem BioAssay AID540275 (National Center for Advancing Translational Sciences (NCATS), 2011)
About 620 (0.19%) of roughly 320,000 compounds were called active. Inconclusive results, whose numbers are uncertain, are shown with a selection of clear calls. No stated cut-off is given here; in the data, active means activation above about 80%; inconclusive means between about 30% and that limit; inactive means weaker than that.

Amino acid sequences for entries named in this document (tags omitted).
UniProt Q8NER1, whole entry, looked up: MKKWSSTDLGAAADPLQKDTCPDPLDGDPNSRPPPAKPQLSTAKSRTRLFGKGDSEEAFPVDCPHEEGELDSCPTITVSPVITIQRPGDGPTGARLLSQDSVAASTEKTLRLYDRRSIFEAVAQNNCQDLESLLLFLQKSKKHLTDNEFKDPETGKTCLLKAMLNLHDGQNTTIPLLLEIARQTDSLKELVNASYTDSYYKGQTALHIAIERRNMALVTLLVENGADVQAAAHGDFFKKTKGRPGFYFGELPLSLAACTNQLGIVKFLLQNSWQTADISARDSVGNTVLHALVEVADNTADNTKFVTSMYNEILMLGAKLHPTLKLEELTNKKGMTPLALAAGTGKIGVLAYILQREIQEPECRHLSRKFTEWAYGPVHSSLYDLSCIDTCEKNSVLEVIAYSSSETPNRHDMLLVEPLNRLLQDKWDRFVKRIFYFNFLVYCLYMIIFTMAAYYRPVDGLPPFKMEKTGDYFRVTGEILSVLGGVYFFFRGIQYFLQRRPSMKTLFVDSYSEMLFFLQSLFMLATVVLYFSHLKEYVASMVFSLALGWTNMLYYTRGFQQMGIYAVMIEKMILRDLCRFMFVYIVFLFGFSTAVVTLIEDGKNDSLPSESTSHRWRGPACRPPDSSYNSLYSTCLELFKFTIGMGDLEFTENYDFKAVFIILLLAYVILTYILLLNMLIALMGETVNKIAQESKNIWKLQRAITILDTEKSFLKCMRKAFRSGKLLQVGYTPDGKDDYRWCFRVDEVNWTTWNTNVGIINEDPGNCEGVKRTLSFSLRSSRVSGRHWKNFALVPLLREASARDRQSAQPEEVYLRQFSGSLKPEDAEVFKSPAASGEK

Each molecule was assayed against Transient receptor potential cation channel subfamily V member 1 (Homo sapiens) (UniProt Q8NER1) (assay: HTS Assay for Compounds that Act as Agonists of the Vanilloid Receptor 1). Details: TRPV1-expressing cells, Fluo-8 calcium influx, agonist mode; at 8.33 µM, hits give high values.
Summary of the method: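 TRPV1-expressing cells were cultured overnight at 35.5C and loaded with Fluo-8 calcium dye for 40 to 90 min at room temperature. After a 10 s baseline, compound was added and calcium influx was read kinetically for 3 min (ex 480/em 520 nm).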
Further: 0% is about no effect.

How did the activation turn out when O=Cc1c(NCc2ccccc2Cl)c2ccccc2[nH]c1=O was run?
The activation was inconclusive: 51.4%.

Which activation does the source give for CCOC(=O)C(Cc1ccccc1)(Cc1ccccc1)C(C)=O here?
The activation was inconclusive: 39.3%.

With CCN(CC(=O)Nc1c(F)cccc1F)C(=O)Cc1ccc2c(c1)OCCO2 as the molecule, how does the activation read?
The activation was inactive: -0.0007%.

Which activation does the source give for O=C(Nc1ccc(Br)c2ccccc12)c1ccc2ccccc2c1O here?
Its activation is inconclusive: 40.8%.

Which activation does the source give for C=C1CCN([C@@H](C)C(=O)OCc2cccc(C)c2)S(=O)(=O)c2ccccc21 here?
Its activation is inactive: 6.55%.

O=c1cc(-c2ccccc2)nc2n1Cc1ccccc1-2 was tested. Which activation did it give?
Its activation is inactive: 5.6%.

With O=C(COc1ccc(F)cc1)N1CCC(c2ccccc2)C1 (stereo not drawn) as the molecule, how does the activation read?
Its activation is inconclusive: 61.2%.

With CC1CCN(c2ccc(C(=O)Nc3ccc4c(c3)OCO4)cc2[N+](=O)[O-])CC1 as the molecule, how does the activation read?
The activation was inconclusive: 32%.

Which activation does the source give for O=C1CC[C@H](O)CCN1CCSc1ccc(Br)cc1 here?
Its activation is inconclusive: 39.2%.

With Cc1ccc(N=Cc2nc(-c3ccco3)oc2O)cc1 as the molecule, how does the activation read?
Its activation is inconclusive: 60.7%.

With COc1ccc(CCNC(=O)COC(=O)C23CC4CC(CC(C4)C2)C3)cc1 as the molecule, how does the activation read?
Its activation is inactive: 29.7%.

Which activation does the source give for Cc1ccc(NC(=O)Nc2ccc3c(c2)N(C)C(=O)CS3)nc1 here?
The activation was inconclusive: 32.8%.

With CCOc1ccc(C(=O)N2CCC(C(=O)c3ccc4c(c3)OCCO4)CC2)cc1 as the molecule, how does the activation read?
The activation was inconclusive: 30%.

For COC(=O)c1ccc(NC(=S)NC(=O)c2c(-c3ccccc3)noc2C)cc1, which activation is on record?
Its activation is inactive: 0.599%.

Which activation does the source give for Cc1ccc(NC2CCCN(C(=O)CCc3scnc3C)C2)cc1C (stereo not drawn) here?
Its activation is inconclusive: 42.2%.

How did the activation turn out when COc1ccc(C(CNC(=O)c2cc3ccccc3cc2O)N2CCOCC2)cc1 (stereo not drawn) was run?
Its activation is inconclusive: 30.5%.

COc1ccc(CC(=O)Nc2ccc3c(C)cc(=O)oc3c2)cc1OC was tested. Which activation did it give?
The activation was inconclusive: 40.7%.

With Cc1ccc(C(=O)OC(C)C(=O)Nc2ccc3c(c2)OCO3)c(O)c1 (stereo not drawn) as the molecule, how does the activation read?
The activation was inconclusive: 33.8%.

Which activation does the source give for CCc1cccc(NC(=O)Cn2cc(C=O)c3ccccc32)c1 here?
Its activation is inactive: -6.41%.

With Cc1ccc(OCC(=O)Nc2ccncc2)cc1 as the molecule, how does the activation read?
The activation was inconclusive: 64.7%.

Which activation does the source give for O=C(N/N=C/c1cccs1)c1cccc(NC(=O)c2ccc(Cl)cc2)c1 here?
The activation was inconclusive: 55.1%.

With Cc1c(C(=O)NNC(=O)c2ccncc2)oc2ccc(Br)cc12 as the molecule, how does the activation read?
The activation was inconclusive: 56.3%.

With O=C(NC1CCCCC1)C(c1ccco1)N(CCc1ccccc1)C(=O)C(F)(F)F (stereo not drawn) as the molecule, how does the activation read?
The activation was inconclusive: 30.5%.

Which activation does the source give for O=C(COc1ccc(Cl)cc1)NCCC1=CCCCC1 here?
Its activation is inconclusive: 33.8%.

For O=C(CN(CCO)c1ccccc1)Nc1ccc(Cl)c(S(=O)(=O)N2CCOCC2)c1, which activation is on record?
Its activation is inconclusive: 32.7%.

Which activation does the source give for CC(=O)NCCn1c(SCc2cccc([N+](=O)[O-])c2)nc2ccccc2c1=O here?
The activation was inconclusive: 30%.

Which activation does the source give for O=C(Cc1cccs1)Nc1cccc(-c2nc3ccccc3o2)c1 here?
The activation was inconclusive: 77.6%.

With O=C(O)c1ccc(N/N=C/c2ccnc3ccccc23)cc1 as the molecule, how does the activation read?
The activation was inactive: -4.67%.

With CCn1c(/C=C/c2ccccc2Cl)nc2ccccc2c1=O as the molecule, how does the activation read?
The activation was inconclusive: 31.5%.

How did the activation turn out when CSc1ccccc1NC(=O)Nc1ccc(Cl)cc1 was run?
The activation was inconclusive: 37.9%.

How did the activation turn out when CC(C)(C)n1nnnc1C(c1ccccn1)N(Cc1ccccc1)Cc1ccc(Cl)cc1 (stereo not drawn) was run?
Its activation is inconclusive: 43.6%.

Which activation does the source give for CCNC(=S)NN(c1ccccc1)c1ccccc1 here?
Its activation is inactive: 7.34%.

How did the activation turn out when COc1ccc(S[C@@H](CCN2CC[C@H](O)CCC2=O)c2ccccc2)cc1 was run?
The activation was inconclusive: 59.1%.

How did the activation turn out when CNc1nc(OCC#N)nc(N2CCCCC2)n1 was run?
Its activation is inconclusive: 31.2%.

Which activation does the source give for COc1ccc(NC(=O)Cc2ccc(Cl)cc2)cc1NC(=O)c1ccco1 here?
Its activation is inconclusive: 37.7%.

Which activation does the source give for Cc1cccc(CC(C)NC(=O)c2oc3c(F)cccc3c2C)n1 (stereo not drawn) here?
Its activation is inconclusive: 50%.

Which activation does the source give for CC1(C)C=Cc2c(c3c(c4c(=O)c(-c5ccc(O)cc5)coc24)OC(C)(C)CC3)O1 here?
Its activation is inconclusive: 72.8%.

With CCOC(=O)C1(Cc2cccc(Cl)c2)CCCN(C(=O)c2cnn(CC)c2)C1 (stereo not drawn) as the molecule, how does the activation read?
The activation was inactive: 29.5%.

For CCOC(=O)C1C(=O)C=C(/C=C/c2ccc(N(C)C)cc2)CC1c1ccccc1 (stereo not drawn), which activation is on record?
The activation was inconclusive: 51.2%.

Which activation does the source give for COc1ccc(NC(=O)c2ccc(S(=O)(=O)N3CCOCC3)o2)cc1 here?
The activation was inconclusive: 52.2%.

How did the activation turn out when CCOC(=O)C1=C(N)Oc2cc(O)ccc2C1c1ccc(F)cc1F (stereo not drawn) was run?
Its activation is inconclusive: 33.2%.

Which activation does the source give for CN(C(=O)CSc1ccccc1C(=O)O)C1CCCCC1 here?
Its activation is inactive: -2.92%.

Cc1ccc2c(NC(=O)c3ccco3)cccc2n1 was tested. Which activation did it give?
The activation was inactive: 1.79%.

How did the activation turn out when Cc1ccc([N+](=O)[O-])cc1/C=N/Nc1nnnn1-c1ccccc1 was run?
Its activation is inactive: 0.464%.

CCN(CC(=O)Nc1cccc(S(=O)(=O)N(C)c2ccccc2)c1)Cc1cccs1 was tested. Which activation did it give?
The activation was inconclusive: 34.4%.

Which activation does the source give for CCOC(=O)c1cccc(NC(=O)c2cnc3ccccc3n2)c1 here?
The activation was inconclusive: 50.6%.

CCCCCn1c(C(Cc2ccccc2)NC(C)=O)nc2ccccc21 (stereo not drawn) was tested. Which activation did it give?
Its activation is inconclusive: 55.5%.

For Cc1cc(C)cc(N2CCN(C(=O)N3CCOCC3)CC2)c1, which activation is on record?
Its activation is inconclusive: 69.1%.

CC(C)CN(c1ccccc1)S(=O)(=O)c1nnc(NC(=O)C(C)C)s1 was tested. Which activation did it give?
Its activation is inactive: -1.37%.

Which activation does the source give for O=C(Nc1cccn(Cc2ccc(F)cc2)c1=O)NC1CCCCC1 here?
The activation was inconclusive: 39.5%.

Which activation does the source give for Cc1ccc(OCC(=O)NNC(=O)CSc2ncnc3sc(C)c(C)c23)cc1 here?
The activation was inactive: 0.178%.

With Cc1cccc(NC(=O)c2cc(N3CCOCC3)nc3ccccc23)c1 as the molecule, how does the activation read?
The activation was inconclusive: 49.6%.

Which activation does the source give for COc1ccc(NC(=O)COc2ccccc2Cc2ccccc2)cn1 here?
The activation was inconclusive: 36.3%.

How did the activation turn out when Nc1ccccc1Nc1nc2ccccc2[nH]1 was run?
The activation was inconclusive: 58.4%.

COc1ccc(OC)c(NC(=O)C(=O)N/N=C/c2ccccc2[N+](=O)[O-])c1 was tested. Which activation did it give?
The activation was inactive: 0.858%.

With Cc1ccccc1CSc1nnc(NC(=O)Cc2cccs2)s1 as the molecule, how does the activation read?
Its activation is inconclusive: 30.9%.

COC(=O)c1c(NC(=O)C(=O)N2CCOCC2)sc2c1CCCC2 was tested. Which activation did it give?
Its activation is active: 87.4%.

Which activation does the source give for O=C(Nc1ccc(Cl)cc1)c1ccco1 here?
The activation was inconclusive: 65.9%.

For CS(=O)(=O)Nc1ccc(C(=O)NCCSC2CCCCC2)cc1, which activation is on record?
The activation was inconclusive: 58%.

How did the activation turn out when CC(C)c1ccc(NC(=S)NC2CC3C=CC2C3)cc1 (stereo not drawn) was run?
The activation was active: 88.8%.

With O=C(NCc1ccc2c(c1)OCO2)c1cc2c(s1)CSC2 as the molecule, how does the activation read?
The activation was inconclusive: 50.2%.

With COc1cc2c(C(=O)O)c(C)n(CC(C)C)c2c2ccccc12 as the molecule, how does the activation read?
The activation was inconclusive: 39.2%.

For CCOC(=O)c1cc(-c2c(Cl)cccc2Cl)no1, which activation is on record?
The activation was inconclusive: 30.9%.

How did the activation turn out when CCOc1cc2c(cc1OCC)C(c1ccc(OC)cc1)N(c1ccccc1)C(=O)C2 (stereo not drawn) was run?
The activation was inactive: 6.73%.

Which activation does the source give for Cc1ccc(NC(=O)C(Cc2ccccc2)n2cccc2)cc1 (stereo not drawn) here?
Its activation is inconclusive: 54.2%.

Which activation does the source give for Cc1ccc(-c2noc(CN(C(=O)c3ccc4c(c3)OCO4)C(C)C)n2)cc1 here?
The activation was inconclusive: 32.7%.

Which activation does the source give for O=C(/C=C/c1ccc(Cl)cc1)c1cccnc1 here?
Its activation is inconclusive: 31.6%.

How did the activation turn out when S=C(NCc1ccc(Cl)cc1)Nc1ccccc1 was run?
The activation was inconclusive: 68.1%.

Which activation does the source give for COc1cccc(C(=O)Nc2ccccc2-c2ccccc2)c1 here?
Its activation is inactive: 22.9%.

Which activation does the source give for COc1ccc(OC)c(-c2csc(N(Cc3ccco3)C(=O)c3ccco3)n2)c1 here?
Its activation is inactive: 5.06%.

For O=C(Nc1cccnc1)c1cc2c(ccc3ccccc32)o1, which activation is on record?
The activation was inconclusive: 67.1%.

CC(=O)O[C@@H]1[C@H](OC(=O)CC(C)C)c2c(ccc3ccc(=O)oc23)OC1(C)C was tested. Which activation did it give?
Its activation is inconclusive: 37.1%.

Which activation does the source give for C=CCNC(=S)N1CCC(C(=O)c2ccc3c(c2)OCCO3)CC1 here?
Its activation is inconclusive: 39%.

With O=C(Nc1ccc2c(c1)OCO2)c1ccc(Cl)c(S(=O)(=O)N2CCOCC2)c1 as the molecule, how does the activation read?
Its activation is inconclusive: 49.7%.

How did the activation turn out when CC(C)Sc1nc2c(cnn2-c2ccc(Cl)cc2)c(=O)[nH]1 was run?
Its activation is inactive: -3.01%.

Which activation does the source give for Cc1ccc(NC(=S)Nc2ccc(F)cc2)cc1C here?
Its activation is inactive: 12.3%.

How did the activation turn out when CC1CCc2[nH]c3ccc(C(=O)N4CCCC(C(F)(F)F)C4)cc3c2C1 (stereo not drawn) was run?
Its activation is inconclusive: 43.8%.

How did the activation turn out when CCOC(=O)CSc1ccc(C(=O)Nc2ccc(OC)cc2)cn1 was run?
The activation was inconclusive: 31.7%.

With Cc1cc(C)c(NC(=O)c2ccc(S(=O)(=O)N3CCOCC3)cc2)c(C)c1 as the molecule, how does the activation read?
Its activation is inconclusive: 43.5%.

Which activation does the source give for CCOC(=O)c1cc2n(n1)C(C(F)(F)F)CC(C)N2 (stereo not drawn) here?
Its activation is inactive: -0.373%.

With O=C(CSc1nc2ccccc2n1CCc1ccccc1)NC1CC1 as the molecule, how does the activation read?
Its activation is inconclusive: 59.5%.

Which activation does the source give for CCc1cc2cc(C(=O)Nc3ccc(F)cc3)sc2s1 here?
Its activation is inconclusive: 43.2%.

For CCNc1c2c3c(cccc3n(C)c1=O)C(=O)c1ccccc1-2, which activation is on record?
The activation was active: 86.4%.

For CC(C)Cn1c(N2CCN(C(=O)/C=C/c3ccccc3)CC2)nc2ccccc21, which activation is on record?
Its activation is inconclusive: 46.8%.

With Cc1ccc(-c2cc(C(=O)N3CCc4ccccc4C3)no2)cc1 as the molecule, how does the activation read?
The activation was inconclusive: 43.3%.

O=[N+]([O-])c1ccc(NC(=S)NCCc2ccccc2)cc1 was tested. Which activation did it give?
The activation was inconclusive: 38.5%.

For COc1cccc(-c2nc(CS(=O)(=O)CC(=O)Nc3ccc(F)cc3F)c(C)o2)c1, which activation is on record?
Its activation is inactive: 16.9%.

How did the activation turn out when CC(C)N(c1ccccc1)c1ccc(NC(=S)NCCN(C)C)cc1 was run?
Its activation is inactive: 1.21%.

Cc1cccc(-c2cccc(NC(=O)C3CCCN(C(=O)c4csc(C)n4)C3)c2)c1 (stereo not drawn) was tested. Which activation did it give?
The activation was inactive: 17%.

Which activation does the source give for Cc1ccc(SCC(=O)N2CCc3ccccc32)cc1 here?
The activation was inconclusive: 40.4%.

O=C(CCn1ccc2ccccc21)Nc1ccc(N2CCOCC2)cc1 was tested. Which activation did it give?
The activation was inconclusive: 39.3%.

For O=C(CCCc1ccccc1)Nc1cccc2c1CCCC2, which activation is on record?
The activation was inconclusive: 33.8%.

O=C(NCc1cccnc1)c1ccc(-c2ccccc2[N+](=O)[O-])o1 was tested. Which activation did it give?
Its activation is inconclusive: 57.3%.
